In this test the target is T1, soluble P-selectin (UniProt P16109 42-771, limits assumed).
T1 sequence (looked up): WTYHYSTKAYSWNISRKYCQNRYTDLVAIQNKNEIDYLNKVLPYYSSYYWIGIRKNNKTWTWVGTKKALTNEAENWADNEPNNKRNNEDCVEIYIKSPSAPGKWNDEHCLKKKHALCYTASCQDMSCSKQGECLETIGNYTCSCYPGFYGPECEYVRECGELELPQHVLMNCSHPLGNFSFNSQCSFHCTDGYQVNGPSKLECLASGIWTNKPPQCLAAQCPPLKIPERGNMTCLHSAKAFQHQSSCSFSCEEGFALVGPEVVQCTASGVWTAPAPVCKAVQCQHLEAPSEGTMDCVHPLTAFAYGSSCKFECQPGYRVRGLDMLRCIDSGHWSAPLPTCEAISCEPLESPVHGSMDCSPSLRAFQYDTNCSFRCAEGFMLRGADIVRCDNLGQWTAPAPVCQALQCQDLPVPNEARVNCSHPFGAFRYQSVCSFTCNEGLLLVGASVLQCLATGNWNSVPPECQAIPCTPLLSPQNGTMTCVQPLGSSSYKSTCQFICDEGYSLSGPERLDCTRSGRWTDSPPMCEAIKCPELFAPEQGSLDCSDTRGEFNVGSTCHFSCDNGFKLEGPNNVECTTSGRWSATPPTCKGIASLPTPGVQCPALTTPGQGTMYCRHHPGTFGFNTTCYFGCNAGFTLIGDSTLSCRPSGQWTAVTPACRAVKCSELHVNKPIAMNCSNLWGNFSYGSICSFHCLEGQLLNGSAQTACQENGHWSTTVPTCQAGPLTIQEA
Put plainly: SPR (Biacore 3000), soluble P-selectin against soluble E-selectin surfaces.

No constants are given. Whether binding was seen depends on the method and setting. Some entries that bind do so weakly or less than the wild type.

B1: humanized G1 antibody design labeled "aggressive" (G1aggr) (antibody, V domains shown)
VH: QVQLVQSGAEVKKPGASVKVSCKVSGYTFTSYDINWVRQAPGKGLEWMGWIYPGDGSIKYNEKFKGRVTMTVDKSTDTAYMELSSLRSEDTAVYYCARRGEYGNYEGAMDYWGQGTLVTVSS
VL: DIQMTQSPSSLSASVGDRVTITCKASQSVDYDGHSYMNWYQQKPGKAPKLLIYAASNLESGVPSRFSGSGSGTDFTLTISSLQPEDFATYYCQQSDENPLTFGGGTKVEIK
notes: also called humanized G1aggr; humanized antibody G1aggr
On to B1, for which the binding result is reported as “binds”.

These data come from patent publication US20110243926A1 (published 2011).
